Reference: patent US20240165066A1, “LYMPH-RELEASING COMPOSITIONS OF FATTY ACIDS AND USES THEREOF FOR LYMPHATIC INCORPORATION AND SYSTEMIC DISEASE TREATMENT” (Amarin Pharmaceuticals Ireland Limited, priority 2022, published 2024)
At least one compound was matched to its structure with a doubt left.

Amino acid sequences for entries named in this document (tags omitted).
UniProt Q920R3, whole entry, stated change not applied: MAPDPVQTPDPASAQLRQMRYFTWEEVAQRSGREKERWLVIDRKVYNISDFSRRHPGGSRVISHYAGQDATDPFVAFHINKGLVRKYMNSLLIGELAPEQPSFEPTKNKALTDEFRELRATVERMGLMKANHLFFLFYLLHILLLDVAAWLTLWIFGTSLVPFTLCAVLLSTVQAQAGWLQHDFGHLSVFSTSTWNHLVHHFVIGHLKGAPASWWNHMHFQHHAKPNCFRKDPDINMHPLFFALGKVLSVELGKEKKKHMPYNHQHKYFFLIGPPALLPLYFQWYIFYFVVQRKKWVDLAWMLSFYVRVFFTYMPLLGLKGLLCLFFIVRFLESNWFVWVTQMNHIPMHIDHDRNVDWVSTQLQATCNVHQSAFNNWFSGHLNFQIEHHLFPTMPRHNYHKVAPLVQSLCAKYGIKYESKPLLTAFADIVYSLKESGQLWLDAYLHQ

Biological target: T1, Δ5-desaturase (Rattus norvegicus, UniProt Q920R3)
T1 construct: the AA/DGLA ratio is a functional Δ5-desaturase index for these omega-6 fatty acids; from tissue; host or cells: tissues of Long-Evans rats (lung tissue discussed; also alveolar macrophages and heart)
Experiment: Functional Δ5-desaturation index at ω-6 (ARA:DGLA)
Type: in vivo, Long-Evans rats
Conditions: compared to EPA+GLA+DHA and oleic acid (OA) control

CC/C=C\C/C=C\C/C=C\C/C=C\C/C=C\CCCC(=O)OCC [EtEPA, eicosapentaenoic acid ethyl ester]
Δ5-desaturation index at ω-6 (Δ5D-I ω-6, ARA:DGLA): substantially suppresses
